Results reported in PubChem BioAssay AID504834 (National Center for Advancing Translational Sciences (NCATS), 2011).
The campaign covered roughly 320,000 compounds. About 22,000 (6.9%) were called active. Inconclusive results, whose numbers are uncertain, are shown with a selection of clear calls. Calls come from the whole dose curve; as a rule, active = well fitted inhibition curve with a large enough effect; inconclusive = small, poorly fitted or top-dose-only effect, or another doubt; inactive = no such curve, though single readings can be large or run the other way. Potencies of inconclusive entries are doubtful fits and often do not repeat.

assay: Primary qHTS for delayed death inhibitors of the malarial parasite plastid, 96 hour incubation; settings: P. falciparum luciferase reporter growth; series mostly up to 28.7 µM
Procedure, shortened: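 96 h incubation, 37 C, 5% CO2, of luciferase-reporter P. falciparum-infected RBCs (2% hematocrit, 0.05% parasitemia final) with test compounds; endpoint luminescence.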
Potency is the fitted concentration of half-maximal effect.

SMILES | Potency
c1ccc2c(Nc3nc4c(s3)CCCC4)cccc2c1 | inactive
O=P(O)(O)OP(=O)(O)O | inconclusive: 13.5 µM [inhibitor, single point]
O=c1c2c(-c3ccccc3)csc2ncn1/N=C/c1cccc([N+](=O)[O-])c1O | inactive
CCOc1ccc(OCC(=O)NCCS(=O)(=O)N2CCN(c3ccc(F)cc3)CC2)cc1 | inconclusive: 18.5 µM [inhibitor, single point]
COc1ccc(-n2nnc3c(=O)n(CC(=O)N4CCCC4)cnc32)cc1 | inconclusive: 11.7 µM [inhibitor, single point]
O=[N+]([O-])/C=C/c1cc2ccccc2[nH]1 | inconclusive: 13.1 µM [inhibitor, partial curve, poor fit]
O=C(CCCc1c[nH]c2ccccc12)N1CCN(S(=O)(=O)c2cccs2)CC1 | inconclusive: 18.5 µM [inhibitor, single point]
CCc1ccc(/C=C(/C#N)C(N)=S)s1 | inconclusive: 10.4 µM [inhibitor, partial curve, poor fit]
O=C(N/N=C/c1ccc(OC(=O)c2ccccc2Cl)cc1)c1ccccn1 | inconclusive: 11.7 µM [inhibitor, single point]
Cn1c(=O)oc2cc(S(=O)(=O)NCCN3CCc4ccccc4C3)ccc21 | active: 8.28 µM
COc1cccc(-c2nc(N3CCN(c4ccccc4)CC3)c3ccccc3n2)c1O | inconclusive: 0.0465 µM [inhibitor, full curve, poor fit]
COC(=O)CCCNC(=O)OCc1ccc([N+](=O)[O-])cc1 | inconclusive: 5.22 µM [inhibitor, partial curve, poor fit]
Cc1ccc(NCc2nc3ccccc3n2C)cc1C | inactive
COC(=O)Cn1c2ccc(OC)cc2c2nc(C)sc21 | inactive
c1ccc(CN(Cc2ccccc2)c2nn[nH]n2)cc1 | inconclusive: 18.5 µM [inhibitor, single point]
CCCc1cc(C(=O)N(C)CC(=O)Nc2ccc(OCC)c(OCC)c2)sc1C | inconclusive: 18.5 µM [inhibitor, single point]
CC1=NNC(=O)C1Oc1ccccc1 (stereo not drawn) | inactive
CCOC(=O)n1ccn(C)c1=S | inactive
C=CCn1c(C)c(C(=O)OCC)c2cc(O)c3ccccc3c21 | inconclusive: 8.28 µM [inhibitor, partial curve, poor fit]
CC1CN(c2ccc([N+](=O)[O-])c(NCCOc3ccc(Cl)cc3)c2)CC(C)N1 (stereo not drawn) | inactive
Nc1cc(N)nc(SCc2nnnn2-c2ccc(Cl)cc2)n1 | inconclusive: 13.1 µM [inhibitor, single point]
COCCCNC(=O)c1ccc(Cn2c(=O)c3ccccc3n(CC(=O)NCCc3ccc(OC)c(OC)c3)c2=O)cc1 | inconclusive: 4.15 µM [inhibitor, partial curve, poor fit]
COc1cc(OC)nc(-n2ncc(Br)c(Br)c2=O)n1 | active: 13.1 µM
CCOC(=O)c1c(NC(=O)c2ccc(Cl)s2)sc(C)c1C | inactive
Cc1ccc(-c2nnn(CC(=O)N(c3ccc4c(c3)OCCO4)C(C(=O)NCC3CCCO3)c3ccc(F)cc3)n2)o1 (stereo not drawn) | inconclusive: 7.38 µM [inhibitor, partial curve, poor fit]

Another view of some results above.

| SMILES | Potency |
| --- | --- |
| COC(=O)CCCNC(=O)OCc1ccc([N+](=O)[O-])cc1 | inconclusive: 5.22 µM [inhibitor, partial curve, poor fit] |
| Cc1ccc(NCc2nc3ccccc3n2C)cc1C | inactive |
| COC(=O)Cn1c2ccc(OC)cc2c2nc(C)sc21 | inactive |
| c1ccc(CN(Cc2ccccc2)c2nn[nH]n2)cc1 | inconclusive: 18.5 µM [inhibitor, single point] |
| CCCc1cc(C(=O)N(C)CC(=O)Nc2ccc(OCC)c(OCC)c2)sc1C | inconclusive: 18.5 µM [inhibitor, single point] |
| CC1=NNC(=O)C1Oc1ccccc1 (stereo not drawn) | inactive |
| CCOC(=O)n1ccn(C)c1=S | inactive |
| C=CCn1c(C)c(C(=O)OCC)c2cc(O)c3ccccc3c21 | inconclusive: 8.28 µM [inhibitor, partial curve, poor fit] |
| CC1CN(c2ccc([N+](=O)[O-])c(NCCOc3ccc(Cl)cc3)c2)CC(C)N1 (stereo not drawn) | inactive |
| Nc1cc(N)nc(SCc2nnnn2-c2ccc(Cl)cc2)n1 | inconclusive: 13.1 µM [inhibitor, single point] |
| COCCCNC(=O)c1ccc(Cn2c(=O)c3ccccc3n(CC(=O)NCCc3ccc(OC)c(OC)c3)c2=O)cc1 | inconclusive: 4.15 µM [inhibitor, partial curve, poor fit] |
| COc1cc(OC)nc(-n2ncc(Br)c(Br)c2=O)n1 | active: 13.1 µM |
| CCOC(=O)c1c(NC(=O)c2ccc(Cl)s2)sc(C)c1C | inactive |
| Cc1ccc(-c2nnn(CC(=O)N(c3ccc4c(c3)OCCO4)C(C(=O)NCC3CCCO3)c3ccc(F)cc3)n2)o1 (stereo not drawn) | inconclusive: 7.38 µM [inhibitor, partial curve, poor fit] |

More results.

SMILES | Potency
Cc1ccc(C(=O)O)c(C(=O)Nc2nc(C)cs2)c1 | inconclusive: 18.5 µM [inhibitor, single point]
O=S1(=O)N(Cc2ccccc2F)CCCN1Cc1c(F)cccc1Cl | inactive
Clc1ccc2c(c1)c1cc(Cl)ccc1n2CN1CCOCC1 | inconclusive: 18.5 µM [inhibitor, single point]
CCOC(=O)CN1C(=O)C(Sc2n[nH]c(-c3cccc(C)c3)n2)CCc2ccccc21 (stereo not drawn) | active: 9.28 µM
CCN(CC)C(=O)CCCc1c[nH]c2ccccc12 | inactive
Cc1ccc(C(=O)N2CCC(Cc3ccccc3)CC2)cc1S(=O)(=O)N1CCOCC1 | inconclusive: 11.7 µM [inhibitor, partial curve]
Cc1cc(O)c2c(c1)OC1(C)CCC3C(C)(C)CCCC34COC2C14 (stereo not drawn) | inconclusive: 12 µM [inhibitor, single point]
CCc1nnc(NC(=O)CSc2nnc(CNc3ccc(Cl)cc3)o2)s1 | inconclusive: 0.0738 µM [inhibitor, full curve, poor fit]
CCCCCCOC(=O)Cc1c(C)nc(-c2ccccc2)[nH]c1=O | inconclusive: 5.22 µM [inhibitor, partial curve]
CCCN1C=CC(=C/C=C(\C#N)C(=O)OCC)C=C1 | inactive
CC(c1ccon1)N(C)Cc1cn(C)nc1-c1cccc(Cl)c1 (stereo not drawn) | inconclusive: 18.5 µM [inhibitor, single point]
COc1ccc(-c2cnnn2-c2ccc([N+](=O)[O-])cc2)cc1 | inconclusive: 13.1 µM [inhibitor, partial curve]
CNC(=O)/C(C#N)=C1\SC(Cc2ccc(F)cc2)C(=O)N1c1ccccc1C (stereo not drawn) | inconclusive: 18.5 µM [inhibitor, single point]
O=[N+]([O-])c1cccc(S(=O)(=O)NCCc2cccs2)c1 | active: 10.4 µM
C=CCNC(=O)C1CC2Cn3c(nc4cc5ccccc5cc43)C2N1C (stereo not drawn) | inconclusive: 1.85 µM [inhibitor, full curve]
CN1CCN(C(=O)c2ccc3c(c2)N(Cc2cccc(Cl)c2)C(=O)c2ccccc2S3(=O)=O)CC1 | active: 11.7 µM
COc1ccc(Br)cc1/C=C/C(=O)Nc1ccc(C)cc1 | inactive
CCOc1ccc(CCNc2cc(C)nc3ncnn23)cc1OCC | inconclusive: 18.5 µM [inhibitor, single point]
C(=N\c1nc2ccccc2n1CCN1CCCCC1)/c1cccs1 | inconclusive: 2.08 µM [inhibitor, single point]
O=C(C1=C(O)C(=O)N(CCN2CCOCC2)C1c1cccc([N+](=O)[O-])c1)c1cccs1 (stereo not drawn) | inactive
CCOCCCn1c(SCC(=O)NC(C)C)nc2ccccc2c1=O | inactive
COc1cccc(-c2nc(=S)c3c(o2)CCCC3)c1 | inactive
O=C(NCc1nnc(SCC(=O)N2CCCCC2)o1)c1c(F)cccc1Cl | inactive
CCc1ccc(/C=C/C(=O)C2C(=O)c3ccccc3C2=O)cc1 | active: 0.928 µM
S=C(NCc1ccccn1)Nc1ccc(Br)cc1Cl | inactive

SMILES | Potency
COc1ccccc1C1C2=C(COC2=O)Nc2cc3c(cc21)OCO3 (stereo not drawn) | inconclusive: 18.5 µM [inhibitor, partial curve, poor fit]
O=C(COC(=O)[C@@H]1CCCN1S(=O)(=O)c1ccccc1F)Nc1ccc(OC(F)F)cc1 | inactive
CCOc1ccc(C2C(C#N)=C(N)Oc3cc(C)n(CCN4CCOCC4)c(=O)c32)cc1OCC (stereo not drawn) | inactive
COc1ccc(-c2csc3ncn(-c4ccc(C)cc4)c(=O)c23)cc1OC | inconclusive: 18.5 µM [inhibitor, single point]
C/C(=N\Nc1ccc(S(=O)(=O)N2CCCCC2)cn1)c1ccc(O)cc1 | inconclusive: 10.4 µM [inhibitor, single point]
COc1ccc(CCNC(=O)CSc2ccsc2[N+](=O)[O-])c(OC)c1 | active: 1.65 µM
O=C(COc1ccccc1)Nc1ccc(S(=O)(=O)N2CCCCCC2)cc1 | inconclusive: 9.28 µM [inhibitor, partial curve, poor fit]
COc1ccc(CN2CCN(Cc3cccc(F)c3)CC2)cc1OC | inactive
Cc1cc(C)c(C#N)c(SCc2ccccc2C)n1 | inconclusive: 18.5 µM [inhibitor, single point]
Cc1ccc(NC(=O)Nc2cccnc2)cc1 | inconclusive: 18.5 µM [inhibitor, single point]
O=C(N/N=C/c1ccncc1)c1cccc(N/N=C/c2ccncc2)c1 | inconclusive: 16.5 µM [inhibitor, single point]
CCOc1ccc(OCc2nnc(SCC(=O)NC3CCS(=O)(=O)C3)n2-c2ccc(Cl)cc2)cc1 (stereo not drawn) | inconclusive: 14.7 µM [inhibitor, single point]
COc1ccc(CCNC(=O)C2CCCN2C(=O)Nc2ccc(C)cc2)cc1OC (stereo not drawn) | inconclusive: 1.85 µM [inhibitor, full curve, poor fit]
O=C(Nc1ccccc1Cl)c1ccccc1Oc1ccc(C(F)(F)F)cc1[N+](=O)[O-] | inconclusive: 18.5 µM [inhibitor, single point]
Cc1cc([N+](=O)[O-])ccc1NC(=O)CCC(=O)N1CCCCC1 | inconclusive: 1.04 µM [inhibitor, full curve]
Cc1c(Br)c([N+](=O)[O-])nn1CC(=O)Nc1ccc(Cc2ccncc2)cc1 | inconclusive: 18.5 µM [inhibitor, single point]
O=C(CN1CCOCC1)N1CCN(S(=O)(=O)c2ccccc2)C1c1ccccc1 (stereo not drawn) | inconclusive: 8.28 µM [inhibitor, partial curve]
CCCCOc1ccc(C2(C(=O)O)CCCC2)cc1 | inconclusive: 18.5 µM [inhibitor, single point]
CC(=O)c1c(C)[nH]c(C(=O)OCCCCN2C(=O)c3ccccc3C2=O)c1C | inactive
COCCN=c1scc(C)n1/N=C/C1CC2C=CC1C2 (stereo not drawn) | inconclusive: 18.5 µM [inhibitor, single point]
CCOc1ccc(OCCN(C)Cc2ccccc2)cc1 | inconclusive: 14.7 µM [inhibitor, single point]
Cc1ccccc1-c1nc2ccccc2o1 | inactive
CCCCn1nc2cc(C(=O)NCC34CC5CC(CC(C5)C3)C4)ccc2c1OC | active: 14.7 µM
